Laboratory results reported in patent US20060078559A1 (EUROSCREEN S A, published 2006).
These are yes or no findings as the source states them, for the method shown.

Target: T1, human formyl peptide receptor-like 2 (FPRL2) (human) (UniProt P25089)
T1 sequence: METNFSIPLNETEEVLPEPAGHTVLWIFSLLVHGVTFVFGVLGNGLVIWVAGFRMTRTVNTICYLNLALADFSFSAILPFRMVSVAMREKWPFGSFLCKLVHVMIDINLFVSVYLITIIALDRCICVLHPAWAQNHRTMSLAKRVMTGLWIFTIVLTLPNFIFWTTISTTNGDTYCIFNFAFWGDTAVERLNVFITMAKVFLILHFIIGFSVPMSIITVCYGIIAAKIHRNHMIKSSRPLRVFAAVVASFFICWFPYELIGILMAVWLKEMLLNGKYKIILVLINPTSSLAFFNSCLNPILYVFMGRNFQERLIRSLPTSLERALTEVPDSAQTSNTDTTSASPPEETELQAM
Test: competition binding on FPRL2-expressing CHO-K1 cells, tracer F2L-[125I]Tyr

Binder: MLWRRKIGPQMTLSHAAG (also called CCL23-derived SHAAG peptide) [SHAAG peptide derived from CCL23 N-terminus]
- binding: no binding (tested: 3 µM)
